The other results are listed elsewhere or left out. Single values are uncertain, as repeats are few or missing.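 Cells were imaged in 1,536-well plates, and nuclei stained with an antibody against cleaved PARP were counted against all DNA-stained nuclei to give the apoptosis fraction. Screening doses were chosen to leave most cells alive, and resting and induced cleaved-PARP levels differ strongly between cell lines.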
The molecules below were run on 501Mel (assay: cleaved PARP positive nuclei fraction relative to DMSO control; melanoma cells; higher = more apoptosis). Settings: library dose: low library concentration; 72 h.

| Compound | cleaved PARP positive nuclei fraction [%] |
| --- | --- |
| Cc1cc(Nc2cc(N3CCN(C)CC3)nc(Sc3ccc(NC(=O)C4CC4)cc3)n2)n[nH]1 [Tozasertib] + N#Cc1c(O)c2c(-c3ccc(-c4ccccc4O)cc3)csc2[nH]c1=O [A769662] (first compound 0.006 µM, partner dose 2 µM) | 180 |
| O=C(Nc1cc(C(F)(F)F)cc(C(F)(F)F)c1)c1cc(Cl)ccc1O + COc1ccc(COc2ccc(Cc3cnc(N)nc3N)cc2OC)cc1 [GW2580] (first compound 0.016 µM, partner dose 1 µM) | 62.3 |
| O=C(/C=C/c1cccnc1)NCCCCC1CCN(C(=O)c2ccccc2)CC1 + COc1cc(N2CCC(N3CCN(C)CC3)CC2)ccc1Nc1ncc(Cl)c(Nc2ccccc2S(=O)(=O)C(C)C)n1 [NVP-TAE684] (first compound 0.01 µM, partner dose 0.08 µM) | 73.5 |
| N#CC[C@H](C1CCCC1)n1cc(-c2ncnc3[nH]ccc23)cn1 [ruxolitinib] + Cn1cc(/C=C2\C(=O)Nc3cccnc32)c2ccccc21 [GW441756] (first compound 1 µM, partner dose 0.4 µM) | 77.2 |
| CCCCCCCCCCCCCCCCCCOP(=O)([O-])OC1CC[N+](C)(C)CC1 [Perifosine] + Oc1nc(-c2ccc(C(F)(F)F)cc2)nc2c1CSCC2 [XAV939] (first compound 0.4 µM, partner dose 2 µM) | 65.3 |
| O=C(/C=C/c1cccnc1)NCCCCC1CCN(C(=O)c2ccccc2)CC1 + Oc1nc(-c2ccc(C(F)(F)F)cc2)nc2c1CSCC2 [XAV939] (first compound 0.01 µM, partner dose 2 µM) | 61.2 |
| Cc1ccc(Nc2nccc(N(C)c3ccc4c(C)n(C)nc4c3)n2)cc1S(N)(=O)=O [Pazopanib] + N#Cc1c(O)c2c(-c3ccc(-c4ccccc4O)cc3)csc2[nH]c1=O [A769662] (first compound 0.4 µM, partner dose 2 µM) | 58.5 |
| N#CC[C@H](C1CCCC1)n1cc(-c2ncnc3[nH]ccc23)cn1 [ruxolitinib] + COc1cc2ncnc(Nc3ccc(Oc4ccccc4)cc3)c2cc1OC [SrcI1] (first compound 1 µM, partner dose 2 µM) | 67.2 |
| O=C(Nc1cc(C(F)(F)F)cc(C(F)(F)F)c1)c1cc(Cl)ccc1O + CCN(CC)CCCCNc1ncc2cc(-c3cc(OC)cc(OC)c3)c(NC(=O)NC(C)(C)C)nc2n1 [PD173074] (first compound 0.016 µM, partner dose 0.1 µM) | 76.4 |
| CCCCCCCCCCCCCCCCCCOP(=O)([O-])OC1CC[N+](C)(C)CC1 [Perifosine] + COc1ccc2c(c1)CCC1C2CCC2(C)C(NCCCCCCN3C(=O)C=CC3=O)CCC12 [U73122] (first compound 0.4 µM, partner dose 0.4 µM) | 68.8 |
| O=c1[nH]nc(Sc2ncc([N+](=O)[O-])s2)n1-c1ccc2c(c1)OCCO2 + N#Cc1c(O)c2c(-c3ccc(-c4ccccc4O)cc3)csc2[nH]c1=O [A769662] (first compound 0.2 µM, partner dose 2 µM) | 54.8 |
| O=c1[nH]nc(Sc2ncc([N+](=O)[O-])s2)n1-c1ccc2c(c1)OCCO2 + COc1ccc2c(c1)CCC1C2CCC2(C)C(NCCCCCCN3C(=O)C=CC3=O)CCC12 [U73122] (first compound 0.2 µM, partner dose 0.4 µM) | 63.8 |
| N#CC[C@H](C1CCCC1)n1cc(-c2ncnc3[nH]ccc23)cn1 [ruxolitinib] + O=C(Nc1ccccc1)c1cc([N+](=O)[O-])ccc1Cl [GW9662] (first compound 1 µM, partner dose 2 µM) | 84.5 |
| O=C(/C=C/c1cccnc1)NCCCCC1CCN(C(=O)c2ccccc2)CC1 + O=c1cc(-c2cccc3c2Sc2ccccc2S3)oc(N2CCOCC2)c1 [KU55933] (first compound 0.01 µM, partner dose 1 µM) | 78.7 |
| CCCCCCCCCCCCCCCCCCOP(=O)([O-])OC1CC[N+](C)(C)CC1 [Perifosine] + Cc1cc([N+](=O)[O-])ccc1NS(=O)(=O)c1cc(Cl)ccc1Cl [FH535] (first compound 0.4 µM, partner dose 1 µM) | 72 |

Part of the list above, tab-delimited:
Compound	cleaved PARP positive nuclei fraction [%]
O=C(/C=C/c1cccnc1)NCCCCC1CCN(C(=O)c2ccccc2)CC1 + Oc1nc(-c2ccc(C(F)(F)F)cc2)nc2c1CSCC2 [XAV939] (first compound 0.01 µM, partner dose 2 µM)	61.2
Cc1ccc(Nc2nccc(N(C)c3ccc4c(C)n(C)nc4c3)n2)cc1S(N)(=O)=O [Pazopanib] + N#Cc1c(O)c2c(-c3ccc(-c4ccccc4O)cc3)csc2[nH]c1=O [A769662] (first compound 0.4 µM, partner dose 2 µM)	58.5
N#CC[C@H](C1CCCC1)n1cc(-c2ncnc3[nH]ccc23)cn1 [ruxolitinib] + COc1cc2ncnc(Nc3ccc(Oc4ccccc4)cc3)c2cc1OC [SrcI1] (first compound 1 µM, partner dose 2 µM)	67.2

— the supplement of paper PMC4604168 (melanoma cell lines)
